Results taken from patent US20110008471A1, “SYNERGISTIC ANTIPARASITIC COMPOSITIONS AND SCREENING METHODS” (TyraTech, Inc., priority 2007, published 2011).
Some results were stated once for a whole list of compounds, not compound by compound.

Biological target: T1, Tyramine receptor (TyrR) (Drosophila melanogaster, UniProt P22270)
T1 construct: expressed in transfected cells; host or cells: model cells in culture
T1 sequence (P22270 27-601): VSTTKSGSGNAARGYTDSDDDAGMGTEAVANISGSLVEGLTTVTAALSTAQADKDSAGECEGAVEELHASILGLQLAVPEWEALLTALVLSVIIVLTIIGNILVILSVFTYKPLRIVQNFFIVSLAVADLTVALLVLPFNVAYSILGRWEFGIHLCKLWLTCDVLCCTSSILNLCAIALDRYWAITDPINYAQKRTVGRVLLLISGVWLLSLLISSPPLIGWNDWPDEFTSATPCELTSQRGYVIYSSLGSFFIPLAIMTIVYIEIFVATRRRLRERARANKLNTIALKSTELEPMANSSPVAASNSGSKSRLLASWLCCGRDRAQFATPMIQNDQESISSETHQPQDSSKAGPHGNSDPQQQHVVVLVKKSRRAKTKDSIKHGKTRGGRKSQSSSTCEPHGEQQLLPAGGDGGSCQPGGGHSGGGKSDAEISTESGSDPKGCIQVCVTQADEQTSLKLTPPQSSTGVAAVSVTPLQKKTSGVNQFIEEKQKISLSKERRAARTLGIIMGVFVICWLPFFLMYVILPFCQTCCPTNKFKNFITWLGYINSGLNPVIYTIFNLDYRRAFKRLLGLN
Assay: Tyramine receptor binding affinity in cells expressing TyrR
Method: In some embodiments, a method of selecting a composition for use in treating a parasitic infection includes the following. A cell expressing a tyramine receptor is provided and is contacted with test compounds. The receptor binding affinity of the compounds is measured. At least one parameter selected from the following parameters is measured: intracellular cAMP level, and intracellular Ca^2+ level. […]
As used herein, the term “receptor binding affinity” refers to an interaction between a composition or component, e.g., compound, and a receptor binding site. […] In some embodiments, the specificity of an interaction between a composition or component, and a TyrR binding site, can be determined in the following manner. […]
In the present Example, the genes encoding TyrR were incorporated into model cells in culture that mimic receptors in insects. The screening process uses the cultured cells in combination with [Ca^2+]i and [cAMP]i measuring assays to quantitatively determine effectiveness of test compound to treat parasitic infections. […]
The assay steps are as follows. A cell expressing a tyramine receptor is contacted with a test compound and the receptor binding affinity of the test compound is measured. […]

Compound | tyramine receptor binding affinity
Cc1ccc(C(C)C)c(O)c1 [Rx11, thymol] | high (a high receptor binding affinity is found when the equilibrium dissociation constant (Kd) is less than about 100 nM)
C=CC(C)(O)CCC=C(C)C (centres unmarked) [linalool] | high (a high receptor binding affinity is found when the equilibrium dissociation constant (Kd) is less than about 100 nM)
